# Percent effect of library compounds

Measurements from “University of Dundee, Small-Polar-MMV Screening Library” (2021), ChEMBL document CHEMBL3988442.

Mtb cholesterol medium: 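Whole-cell growth test on Mycobacterium tuberculosis, read after 4 days in a medium based on cholesterol and the lipid DPPC; the read-out is not stated. Compounds at 50 µM. The record gives no direction; compounds that gave an IC50 in retests scored well above the rest, so higher reads as more growth inhibition. Of about 69,000 compounds tested this way, about 370 (0.54%) reached 50% or more in at least one test.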
Mtb glucose medium: 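Phenotypic screen: M. tuberculosis growth, glucose 7H9 medium, 3 days; the read-out is not stated. Tested at 50 µM. Higher reads as more growth inhibition (inferred: compounds with an IC50 in retests scored well above the rest). Of about 69,000 compounds tested this way, about 760 (1.1%) reached 50% or more in at least one test.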

Values are the deposited “Percent Effect”, in %. The record does not define 0% and 100%; most values in the screen are far below 50% and negative numbers occur (in some assays of this library far below -100). Compounds were drawn at random from those tested, without regard to their results. Two or more numbers in one place are separate tests of the same structure; such repeats can differ widely.

| Compound | Mtb cholesterol medium | Mtb glucose medium |
|---|---|---|
| `CCOc1ncccc1CNS(=O)(=O)c1ccc2c(c1)CCO2` | -21.31 | -13.68 |
| `Cn1nc(CN2CCCN(C3CCCC3)CC2)c2c(Cl)cccc21` | 41.89 | 63.78 |
| `COC(=O)c1ccc(NC(C)c2ccc3c(c2)NC(=O)CO3)nn1` (configuration not stated) | -1.112 & 14.34 | 15.91 |
| `O=C(Nc1nc2c(s1)CN(S(=O)(=O)C1CC1)CC2)Nc1ccccc1F` | -35.86 | -10.53 |
| `Cc1nc(N2CCCC2)nc2c1CCN(Cc1ccsc1)CC2.O=C(O)C(F)(F)F` | 92.27 & 82.92 | 85.4 & 81.34 |
| `[H][C@]12CCCCN1CCC[C@@]2(O)CN1CCC(O)(Cn2ccnc2)CC1` | -13.65 | 0.9392 |
| `CC(C)(C)c1cn(C[C@H]2CC3CCN2C[C@@H]3C(=O)NC2CC2)nn1` (some centres not stated) | -26.9 | -1.389 & -8.922 |
| `Cc1nn(C)c(Cl)c1C1CCCN1CC(=O)NC1CCCCC1` (configuration not stated) | 13.81 | 9.694 |
| `COc1ccc(C(C)n2ccnc2-c2cc3n(n2)CCCNC3)cc1F` (configuration not stated) | -11.01 | -9.006 & 10.63 |
| `COc1cc(CN2CCC3(CC(Nc4ccncn4)C3)C2)cc(OC)c1` (configuration not stated) | 14.58 | 13.04 |
| `O=C(Cc1cccs1)NCC1(O)CCSCC1` | 21.16 | 41.99 |
| `Cn1cc(C(=O)N2CCSc3ccccc32)ccc1=O` | 9.718 | -5.241 & -16.1 |
| `Cc1ncnc2c1CCN(C(=O)c1cnccn1)CC2` | -9.271 | -12.69 & -2.735 |
| `CCn1nnc2c1C(COC)CN(Cc1ccsc1)C2.O=C(O)C(F)(F)F` (configuration not stated) | -5.639 | 12.3 |
| `COCCCN(CCOC)C(=O)Nc1ccccc1Br` | 0.7754 | 12.47 & -0.01285 |
| `Cc1nn(C)c(C)c1S(=O)(=O)NCC1(C(N)=O)CCOCC1` | -21.99 | 27.18 |
| `CCc1cnc(N2CC3(CCN(S(=O)(=O)C4CC4)C3)C2)nc1` | 5.114 | -25.24 |
| `Cn1cc(CCCN2CCCC(c3cc(C(F)(F)F)[nH]n3)C2)cn1` (configuration not stated) | -4.366 | 6.056 |
| `COC(=O)CN(C)Cc1cc(Br)cs1` | 86.83 | -2.206 |
| `CC[C@H]1CN(C(=O)C(C)(C)C)CC[C@H]1CC(=O)O` | 6.793 | -4.795 & 6.185 |
| `CCCSCC(=O)NCc1cccc(CN(C)CC)c1` | -6.122 | 15 |
| `COCC1CC2(CCN(C(=O)C3CCSCC3)CC2)CO1` (configuration not stated) | -20.79 | -28.66 & -7.614 |
| `O=C(NCCc1nccs1)c1cn(CCN2CCNCC2)nn1` | -13.69 | 3.072 |
| `CCN1CC(C(=O)N2CCc3cc(C(N)=O)n(C)c3C2)CCC1=O` (configuration not stated) | -0.483 | 12.59 |
| `Cc1cccc(O[C@H]2COCCN(C3CCOCC3)C2)n1` | 10.39 | 26.6 & -0.6846 |
| `Nc1nccnc1C1CN(C(=O)c2cnc(C3CC3)nc2)CCO1` (configuration not stated) | -5.089 | 6.364 |
| `CCn1cnnc1CNC(=O)NCC(C)(CC)N1CCOCC1` (configuration not stated) | 1.331 | -3.437 & -6.583 |
| `Cc1ccc(C(=O)Nc2nnc(CC(C)C)s2)c(-n2cnnn2)c1C` | -31.22 | -28.75 |
| `O=C(c1cnc(Cc2c(Cl)cccc2Cl)nc1O)N1CCNCC1` | -13.8 | -27.18 |
| `Cl.O=C(N1CCCC1)C1(Cc2ccc(-c3cccs3)cc2)CCNC1` (configuration not stated) | 20.11 & 19.56 | 32.8 |
| `Cn1cc(C2CCCN2CCC(=O)N2CCc3sccc3C2)cn1` (configuration not stated) | -44.1 | -23.02 |
| `CCc1c(C)sc2c1c(N)nc(=O)n2CCN1CCCCC1` | -4.671 | 3.677 & -14.44 |
| `Cn1c(CN2CCCc3cc(F)cc(F)c32)cc(=O)n(C)c1=O` | -30.96 & -13.85 | -10.9 |
| `CC(C)n1cnnc1Cn1c(=O)cnc2ccccc21` | -11.26 | -4.571 |
| `O=C(CCc1ccco1)Nc1cc(C(F)(F)F)c[nH]c1=O` | -16.14 | 14.79 |
| `CC(C)NC(=O)Nc1ccc(CNCc2ccc(OC(F)F)cc2)cc1` | -2.294 | -0.007191 |
| `O=C(O)C(F)(F)F.[H][C@@]12CCN(CC3CC3)[C@@]1([H])CCN2C(=O)c1ccc(F)cc1` | -19.97 | -16.91 |
| `CS(=O)(=O)N1CC(c2nc[nH]n2)c2cc(C(=O)NC3CCCC3)ccc21` (configuration not stated) | 12.69 | 45.17 |
| `O=C(COCc1ccccc1Cl)N1CCCC(n2cccn2)C1` (configuration not stated) | -20.23 | -9.217 |
| `O=C1CCC(=O)N1c1nn(Cc2c(F)cccc2Cl)cc1Cl` | -20.31 | -5.587 |
| `Cc1ccc(Br)c(S(=O)(=O)NCc2cnn(C)c2)c1` | 3.274 | 13.75 |
| `Cc1nc(-c2ncc(C(=O)NCCNc3ncccc3C)c(O)n2)cs1` | 8.363 | 14.33 |
| `O=C(O)C(F)(F)F.O=C(O)C(F)(F)F.[H][C@@]12CCCO[C@]1([H])[C@@H](OCc1ccncc1)CN2Cc1scnc1C` | 2.922 & 5.605 | -3.371 & 4.961 |
| `COC(=O)c1ccc(Cl)c(S(=O)(=O)Nc2ccc(F)c(C(N)=O)c2)c1` | -12.61 | 6.963 & 21.56 |
| `Cc1cccc(C(=O)N2CCCC2c2c(C)n[nH]c2C)c1` (configuration not stated) | -14.23 & -4.71 | -19.07 & 0.1725 |
| `Cc1c(CN2CCCC2(C)C(=O)N2CCOCC2)cnn1C` (configuration not stated) | -10.04 | -6.931 |
| `COc1c(C2CCCN2C(=O)c2cnc(C)cn2)c(C)nn1C` (configuration not stated) | -38.13 | -30.79 |
| `COCCNC(=O)C(C)n1nc(-c2ccco2)cc(N)c1=O` (configuration not stated) | -16.9 & 0.09157 | 8.787 |
| `CCOCCCNC(=O)c1cc(C)nc(N2CCCC2)n1` | -19.07 | -12.63 |
| `Cn1nnnc1SC1CCc2ccccc2NC1=O` (configuration not stated) | -36.86 | -9.693 |

The first 4 entries again:

Result for CCOc1ncccc1CNS(=O)(=O)c1ccc2c(c1)CCO2 was Mtb cholesterol medium: -21.31%; Mtb glucose medium: -13.68%.
Result for Cn1nc(CN2CCCN(C3CCCC3)CC2)c2c(Cl)cccc21 was Mtb cholesterol medium: 41.89%; Mtb glucose medium: 63.78%.
Result for COC(=O)c1ccc(NC(C)c2ccc3c(c2)NC(=O)CO3)nn1 (configuration not stated) was Mtb cholesterol medium: -1.112% & 14.34%; Mtb glucose medium: 15.91%.
Result for O=C(Nc1nc2c(s1)CN(S(=O)(=O)C1CC1)CC2)Nc1ccccc1F was Mtb cholesterol medium: -35.86%; Mtb glucose medium: -10.53%.